This assay addresses nucleotide-binding domain leucine-rich repeat and pyrin domain-containing receptor 3 (NLRP3) (mouse (endogenous in RAW264.7 and primary peritoneal macrophages)) (UniProt Q8R4B8). Nature of the assay: co-IP; endogenous TXNIP or NLRP3 immunoprecipitated from lysates of RAW264.7 cells or primary peritoneal macrophages (control, Mtb H37Ra 12 h, Mtb + 100 uM baicalin 12 h); Protein A/G agarose/sepharose beads, 4°C; immunoblot for the other protein. In general terms: In western blotting, separated proteins are transferred to a membrane and probed.

By UniProt entry, the sequences of proteins in these tests, tags left out.
UniProt Q8R4B8: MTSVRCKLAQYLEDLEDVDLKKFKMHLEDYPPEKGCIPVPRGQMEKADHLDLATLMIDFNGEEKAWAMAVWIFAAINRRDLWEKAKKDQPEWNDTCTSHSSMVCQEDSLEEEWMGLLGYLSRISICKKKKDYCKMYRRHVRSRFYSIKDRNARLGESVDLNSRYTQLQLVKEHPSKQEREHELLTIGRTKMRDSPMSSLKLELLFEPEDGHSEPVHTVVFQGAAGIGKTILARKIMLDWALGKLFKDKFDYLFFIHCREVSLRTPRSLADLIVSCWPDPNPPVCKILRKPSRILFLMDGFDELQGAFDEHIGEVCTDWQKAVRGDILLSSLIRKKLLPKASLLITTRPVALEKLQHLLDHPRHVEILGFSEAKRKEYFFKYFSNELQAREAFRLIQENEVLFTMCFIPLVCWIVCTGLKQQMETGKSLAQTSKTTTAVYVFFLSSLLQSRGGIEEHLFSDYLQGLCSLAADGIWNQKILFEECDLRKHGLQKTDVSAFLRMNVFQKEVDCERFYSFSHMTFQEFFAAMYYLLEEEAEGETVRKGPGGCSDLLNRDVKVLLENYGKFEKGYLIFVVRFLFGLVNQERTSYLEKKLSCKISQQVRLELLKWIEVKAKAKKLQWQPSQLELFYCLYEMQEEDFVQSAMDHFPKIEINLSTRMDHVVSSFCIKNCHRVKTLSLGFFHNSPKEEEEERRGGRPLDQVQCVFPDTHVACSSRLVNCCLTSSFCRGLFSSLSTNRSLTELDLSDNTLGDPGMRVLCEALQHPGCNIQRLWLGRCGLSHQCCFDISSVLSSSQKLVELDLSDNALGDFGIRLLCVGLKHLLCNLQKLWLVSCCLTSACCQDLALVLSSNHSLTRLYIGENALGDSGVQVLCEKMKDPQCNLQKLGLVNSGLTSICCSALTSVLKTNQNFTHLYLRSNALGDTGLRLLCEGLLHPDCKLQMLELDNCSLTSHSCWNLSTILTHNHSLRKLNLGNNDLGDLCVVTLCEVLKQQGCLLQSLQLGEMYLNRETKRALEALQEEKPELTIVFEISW

Results are given in words; binding and its absence hold for the method and conditions named. Binding seen in cells or lysates may run through a third protein. Some binding calls cover weakened binding; strength is not graded here.

B1: Thioredoxin-interacting protein (TXNIP) (protein, UniProt Q8BG60 1-397)
chain: MVMFKKIKSFEVVFNDPEKVYGSGEKVAGRVIVEVCEVTRVKAVRILACGVAKVLWMQGSQQCKQTLDYLRYEDTLLLEEQPTAGENEMVIMRPGNKYEYKFGFELPQGPLGTSFKGKYGCVDYWVKAFLDRPSQPTQEAKKNFEVMDLVDVNTPDLMAPVSAKKEKKVSCMFIPDGRVSVSARIDRKGFCEGDDISIHADFENTCSRIVVPKAAIVARHTYLANGQTKVFTQKLSSVRGNHIISGTCASWRGKSLRVQKIRPSILGCNILKVEYSLLIYVSVPGSKKVILDLPLVIGSRSGLSSRTSSMASRTSSEMSWIDLNIPDTPEAPPCYMDIIPEDHRLESPTTPLLDDVDDSQDSPIFMYAPEFQFMPPPTYTEVDPCVLNNNNNNNNVQ
B1: the binding result is listed as “binds”.

For the origin of these results see PMC8592748.
